Measured values from PubChem BioAssay AID2685 (National Center for Advancing Translational Sciences (NCATS), 2010).
Values joined by “and” are separate entries in the source; they are usually repeats but may differ in a detail not shown here. Identical values can stand only once. Screen size: about 320,000 compounds; about 2,100 (0.66%) were called active. The shares of active, inactive and inconclusive entries below differ from those in the screen. Calls follow the shape of the dose curve; as a rule, active = well fitted inhibition curve with a large enough effect in the signal ratio, with a control signal flat (not every such curve was filed as active); inconclusive = small, poorly fitted or top-dose-only effect, or effect the other way, or a change in a side signal; inactive = flat fitted curve, though single readings scatter; the % refers to the signal ratio. A potency beside an inconclusive call is a rough fit, not a confirmed value.

Test: qHTS Assay for Lipid Storage Modulators in Drosophila S3 Cells
Conditions: BODIPY lipid droplet fluorescence, 18-24 h, cells fed with added oleic acid; lipid storage change, negative = inhibition: at 46.1 µM (top of the series) unless noted
Source text: NIH Molecular Libraries Probe Production Centers Network [MLPCN] NIH Chemical Genomics Center [NCGC] MLPCN Grant: 1 R03 MH085686-01 Assay Submitter (PI): Beller, Mathias; Max-Planck-Institut fur Biophysikalische Chemie NCGC Assay Overview: Storing lipids as a reservoir for energy or the anabolism of elementary metabolites is a common feature of probably all cells and is conserved from bacteria to humans. The universal cellular lipid storage organelle is the so-called lipid storage droplet (LD). Although ubiquitous, LDs share a simple structure composed of a hydrophobic core that harbors the storage lipids, which is shielded by a droplet-specific phospholipid monolayer to which proteins are attached. The current model of LD biogenesis involves an incorporation of the lipid core into the membrane leaflets of the endoplasmic reticulum (ER) followed by a subsequent budding-like maturation of a LD, which ultimately pinches off. Once released, LD volume can increase by localized lipogenesis or fusion of existing droplet. Storage lipids are re-mobilized enzymatically by lipase activity. Lipase regulation in the adipocyte is heavily studied and involves multiple components including catecholamine signaling, the LD-associated proteins Perilipin and comparative gene identification (CGI-58) and at least two lipases named hormone sensitive lipase (HSL) and adipocyte triglyceride lipase (ATGL). LD regulation outside of the adipocyte is poorly understood and only few components are known. However, there is an urgent need to learn more about ectopic fat depots as mislocalized storage of lipids, for example in the liver or muscle, is an eminent health problem associated with insulin resistance or the metabolic syndrome. We developed a laser-scanning cytometer assay to enable 1,536-well screening and combined the results of the small molecules screen with an RNAi database based on lipid storage.
Triacsin C (Sigma-Aldrich T-4540), an inhibitor of long-chain fatty acyl CoA synthetase that blocks synthesis of triglycerides, was used as a positive control for lipid under-storage. A total of 23 nL of compound solution of different concentrations were transferred to the assay plates using a Kalypsys pin tool equipped with a 1,536-pin array containing 10-nL slotted pins (FP1S10, 0.457-mm diameter, 50.8 mm long; V&P Scientific). One microliter of oleic acid (400 uM) was added, and the plate was lidded with stainless steel rubber gasket lined lids containing pinholes. […] Fluorescence was detected by excitation of the fluorophores with a 488-nm laser on an Acumen Explorer (TTP Lab Tech). The total intensity in channel 2 (500-530 nm) reflected lipid droplet accumulation. Cells were detected using channel 3 (575-640 nm) with 5-um width and 100-um depth filters. The ratio of the number of objects in PMT channel 2 over the number of objects in PMT channel 3 was also calculated. Percent activity was computed relative to an internal control (100% inhibited lipid droplet deposition due to the presence of 20 uM Triacsin C), which was added to 32 wells/plate.
% is scaled to controls: 0 for no effect and ±100 for the full control effect; potency is read from the fitted curve at half-maximal effect.

Compound	lipid storage change, negative = inhibition	Potency
CC(NC(=O)C1CCCC1)c1ccc2c(c1)OCCO2 (stereo not drawn)	inconclusive: 25.2%	–
CCCC(=O)Nc1nnc(CC(=O)N2CCCC2)s1	inconclusive: -31.6%	–
C=CCN=C1N[C@@H](c2ccccc2)C(C(=O)OC)=C(C)N1CCOC	–	inconclusive: 10.3 µM [activator, partial curve] and inconclusive: 58 nM [activator, full curve, poor fit]
C=CCN(C(=O)C1CC(=O)N(C2CCCC2)C1)c1nc(-c2ccc(S(C)(=O)=O)cc2)cs1 (stereo not drawn)	inconclusive: 14.3%	–
CCOC(=O)N1CCC(NC(=O)c2cccn3c(=O)c4cc(Br)ccc4nc23)CC1	inconclusive: 2.34%	–
O=C1[C@H](CC[C@H](O)c2ccc(F)cc2)[C@@H](c2ccc(O)cc2)N1c1ccc(F)cc1	inconclusive: -8.71%	–
O=C(N/N=C/c1ccc(-c2ccc([N+](=O)[O-])cc2)o1)c1cccnc1	inconclusive: -26.6%	–
CCc1ccccc1NC(=O)CN(C)Cc1nc(N)nc(Nc2ccccc2C)n1	inconclusive: 16.9%	–
Cc1cc(C)cc(N(C(C)C(=O)Nc2c(C)n(C)n(-c3ccccc3)c2=O)S(C)(=O)=O)c1 (stereo not drawn)	inconclusive: 47.5%	–
O=C(N=C1SC2CS(=O)(=O)CC2N1c1ccccc1Cl)C1CCCO1 (stereo not drawn)	inconclusive: 90.5%	–
CCOC(=O)c1c(-c2ccccc2)oc2ccc(OCC(N)=O)cc12	–	inconclusive: 29.1 µM [falling, single point]
COC(=O)c1nn(-c2ccc(Oc3ccccc3)cc2)c(=O)cc1O	inconclusive: -13.5%	–
O=C(NCCCCNC(=O)c1ccc(Br)cc1)c1ccc(Br)cc1	–	inconclusive: 29.1 µM [activator, single point]
c1ccc(C2=Nn3c(nnc3-c3n[nH]c4c3CCC4)SC2)cc1	inconclusive: 10.5%	–
CCOC(=O)c1[nH]c2ccccc2c1NC(=O)NC1CCCCC1	–	inconclusive: 6.51 µM [activator, single point]
CC(C)(C)NC(NC(=O)Cc1ccccc1)C(Cl)(Cl)Cl (stereo not drawn)	inconclusive: -26.4%	–
CCCC(=O)Nc1c2c(nn1-c1ccc(C)cc1)CS(=O)(=O)C2	inconclusive: -1.88%	–
C/C(=C\COc1ccc2ccc(=O)oc2c1)CC[C@@H](O)C(C)(C)O	–	inconclusive: 29.1 µM [activator, partial curve, poor fit]
Cn1c(=O)c2c(nc(N/N=C3\CCCc4ccccc43)n2Cc2ccc(F)cc2)n(C)c1=O	inconclusive: 2.51%	–
CC1CCc2sc(C(=O)OCC(=O)NCc3ccc(F)cc3)cc2C1 (stereo not drawn)	–	inconclusive: 29.1 µM [falling, single point]
O=C(NNC(=O)c1sccc1-n1cccc1)c1ccccc1	inconclusive: -8.5%	–
CC(C)NC(=O)COc1ccc(S(=O)(=O)N2CCCC2)cc1	inconclusive: -31.7%	–
COc1ccc(NS(=O)(=O)c2ccc(NC(=O)C3CC3)cc2)cc1	inconclusive: -37.3%	–
Cc1ccc(C)n1-c1cccc(N)c1	inconclusive: 32.3%	–

Compound	lipid storage change, negative = inhibition	Potency
Cc1cc(C(=O)CN2c3cccc4cccc(c34)S2(=O)=O)c(C)n1C	inconclusive: -16.7%	–
Cc1ccc(C)c(N2CCN(S(=O)(=O)CC34CCC(CC3=O)C4(C)C)CC2)c1 (stereo not drawn)	–	inconclusive: 4.61 µM [activator, full curve]
COc1cc2c3nnc(-c4ccccc4)c-3cn(Cc3ccccc3F)c2cc1OC	–	inconclusive: 6.51 µM [falling, single point]
CCOc1ccc(C(=O)NC2CCN(C(=S)Nc3ccccc3C)CC2)cc1	–	inconclusive: 0.13 µM [falling, full curve, poor fit]
COc1cc(C)nc(SCC(N)=O)n1	inconclusive: -39.8%	–
Cc1c(Br)c(C(=O)N2CCc3ccccc32)nn1C	–	inconclusive: 0.291 µM [rising, partial curve]
Cc1ccc(S(=O)(=O)N(C)c2ccc(OCC(=O)Nc3cccc(-n4cnnn4)c3C)cc2)cc1	inconclusive: -1.35%	–
O=C(COC(=O)CNC(=O)c1cccc([N+](=O)[O-])c1)Nc1nc2ccccc2s1	inconclusive: 21.9%	–
COc1ccc(CCNC(=O)CSc2nc(-c3ccco3)cc(C(F)(F)F)n2)cc1	inconclusive: 32.3% [activator]	–
C=CCn1c(SCC(=O)Nc2sccc2C#N)nc2sc(C)c(C)c2c1=O	–	inconclusive: 0.231 µM [activator, full curve]
O=CN1CCN(C(=O)CN2C(=O)c3ccccc3C2=O)CC1	inconclusive: -18.4%	–
COCC(=O)Nc1ccc(S(=O)(=O)Nc2cc(C)nc(C)n2)cc1	–	active: 32.6 µM
COc1cc(OC)cc(-c2c(-c3ccc(F)cc3)c3cc(-c4cccc5[nH]ccc45)ccc3n2C)c1	–	inconclusive: 0.103 µM [activator, full curve, poor fit]
COc1ccc(OC)c(NC(=O)C(=S)NC2CCCCC2)c1	inconclusive: 5.09%	–
COc1cc(OC)cc(-c2oc3cccnc3c2C#CCCO)c1	inconclusive: 7.33%	–
O=C(NNC(=O)c1ccc(Cn2cccn2)o1)NC12CC3CC(CC(C3)C1)C2	inconclusive: 60%	–
COc1cc(/C=C2/C(=O)N(c3ccc(C)c(C)c3)N=C2C)cc([N+](=O)[O-])c1O	inconclusive: -35.2%	–
C1=CC2c3ccccc3NC(c3ccncc3)C2C1 (stereo not drawn)	inconclusive: 30.3%	–
Cc1cc(NC(=O)CSc2nnc(-c3ccc4c(c3)OCCO4)o2)no1	inconclusive: 23.7%	–
Cc1c(NC(=O)CSc2ccc(Cl)cc2)cccc1-c1nc2ncccc2o1	inconclusive: 223%	–
Cc1ccc(Cl)cc1NC(=O)COC(=O)C1CCCCC1	inconclusive: -7.18%	–
C/C(=N/OC(=O)c1ccc(C(F)(F)F)cc1)c1oc(C)nc1C	inconclusive: 19.1%	–
CC1=C(C)CC(C(=O)N2CCN(Cc3ccccc3)CC2)C(C(=O)O)C1 (stereo not drawn)	–	inconclusive: 6.51 µM [activator, single point]
CSc1ccccc1NC(=O)CN(C)CC(=O)Nc1ccc(Cl)cc1F	inconclusive: 22.2%	–
